These are yes or no findings as the source states them, for the method shown. Binding seen in cells or lysates may run through a third protein. Tags and fused reporters may be left off the sequences shown.
Target: Flag-tagged mutant KRAS G12D (human) (UniProt P01116)
Assay: co-IP; PANC-1 cells co-transfected with Flag-tagged mutant KRAS and Myc-tagged RC, ODC or RC-ODC; 1-1.5 mg lysate protein with anti-Flag antibody 4 h at 4 °C, then protein A/G-Sepharose 2 h at 4 °C; blot

B1: ornithine decarboxylase with the Myc tag (protein, UniProt P11926 1-461)
chain: MNNFGNEEFDCHFLDEGFTAKDILDQKINEVSSSDDKDAFYVADLGDILKKHLRWLKALPRVTPFYAVKCNDSKAIVKTLAATGTGFDCASKTEIQLVQSLGVPPERIIYANPCKQVSQIKYAANNGVQMMTFDSEVELMKVARAHPKAKLVLRIATDDSKAVCRLSVKFGATLRTSRLLLERAKELNIDVVGVSFHVGSGCTDPETFVQAISDARCVFDMGAEVGFSMYLLDIGGGFPGSEDVKLKFEEITGVINPALDKYFPSDSGVRIIAEPGRYYVASAFTLAVNIIAKKIVLKEQTGSDDEDESSEQTFMYYVNDGVYGSFNCILYDHAHVKPLLQKRPKPDEKYYSSSIWGPTCDGLDRIVERCDLPEMHVGDWMLFENMGAYTVAAASTFNGFQRPTIYYVMSGPAWQLMQQFQNPDFPPEVEEQDASTLPVSCAWESGMKRHRAACASASINV
- binding: no binding
